# Measurements taken from PubChem BioAssay AID493014 (National Center for Advancing Translational Sciences (NCATS), 2011).
# Values joined by “and” are separate entries in the source; they are usually repeats but may differ in a detail not shown here. Equal values may be shown once. The list shows a part of the results. Further columns of the screen follow, without active or inactive calls. Compounds called inactive in the main read-out are mostly missing here. The note in brackets gives the kind of curve behind each potency; many fits are weak.
# Assay: qHTS Assay to Find Inhibitors of Chronic Active B-Cell Receptor Signaling
# Conditions: ABC-DLBCL IkBa-CBG/CBR reporter, luminescence ratio (green luciferase fused to IkBa over red control in TMD8 lymphoma cells), 4 h
# Method in brief: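 Concentration-response series (up to 46 uM) were applied to TMD8 dual-reporter cells for 4 h at 37C with doxycycline. Green/red ratio, after filter-overlap correction, defined %Activity; red signal alone was normalised to basal cells and zero luminescence.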
# [1] = measured here: CBR red luminescence, cell number
# [2] = measured here: IkBa-CBG green luminescence
Structure (SMILES),AC50 [1],AC50 [2]
O=C(Nc1ccc(Cc2ccncc2)cc1)c1ccc(Br)o1,"1.46 µM [falling, full curve]",–
CCc1nc(SCCO)c2oc3ccccc3c2n1,"35.5 µM [rising, partial curve, poor fit]",–
CC(=O)c1c(C)oc2c1C(=O)c1ccccc1C2=O,"0.517 µM [rising, partial curve, poor fit]",–
Cc1nc2cc(NC(=O)NCc3ccco3)ccc2n1C,"18.4 µM [falling, partial curve]",–
O=C(CSc1nc2[nH]ncc2c(=O)[nH]1)N1CCCCC1,"0.00461 µM [falling, full curve, poor fit]",–
CC1=CC2=NC(=O)/C(=C\c3cccn3CCOc3cc(C)ccc3C)C(=N)N2O1,"20.6 µM [falling, single point]","29.1 µM [rising, partial curve, poor fit]"
CC(Sc1ccccc1)C(=O)N1CCN(S(=O)(=O)c2ccccc2C(F)(F)F)CC1 (stereo not given),"6.31 µM [rising, single point]",–
Cc1cc(C(=O)COC(=O)c2ccc3c(c2)NC(=O)CS3)c(C)n1CCc1ccc(Cl)cc1,"28.2 µM [falling, partial curve, poor fit]",–
CCNC(=O)CC1C(=O)N(c2ccccc2)C(=O)N1CCOC (stereo not given),"6.31 µM [rising, single point]",–
O=C(Cc1ccsc1)N1CCN(S(=O)(=O)c2cc(C(F)(F)F)cc(C(F)(F)F)c2)CC1,"4.47 µM [falling, partial curve, poor fit]",–
Cc1cc(C(=O)COC(=O)CCc2nc3ccccc3s2)c(C)n1C,"16.4 µM [rising, single point]",–
O=c1[nH]c2ccccc2c2nc3ccccn3c12,"7.08 µM [falling, partial curve]",–
Cc1c(C(=O)N(Cc2cccc(Br)c2)C2CCS(=O)(=O)C2)oc2ccccc12 (stereo not given),"3.16 µM [falling, single point]",–
C/C=C\C(=O)Nc1cccc(C2=NOC3(C2)C[C@@H](C(N)=O)N(C(=O)c2ccccc2)C3)c1 (stereo not given in full),"12.6 µM [rising, single point]",–
O=C(O)[C@H](Cc1ccccc1)NC(=O)C(c1ccccc1)(c1ccccc1)c1ccccc1,"0.501 µM [falling, full curve, poor fit]",–
COc1ccc2cc(C3(C)NC(=O)NC3=O)ccc2c1 (stereo not given),"35.5 µM [rising, single point]",–
O=C(/C=C/c1ccccc1)N(c1ccccn1)C1CCCCC1,"6.51 µM [rising, full curve, poor fit]",–
CN(CC(=O)NCc1ccncc1)S(=O)(=O)c1cc(Cl)ccc1Cl,"0.891 µM [rising, full curve]",–
Cc1cc(Cl)ccc1OCC(=O)NNC(=O)c1ccco1,"6.31 µM [rising, single point]",–
CC1CN(c2cc3nccnc3cc2F)CC(C)O1 (stereo not given),"2.31 µM [rising, partial curve, poor fit]",–
O=C(CN1CCN(c2ccc(F)cc2)CC1)Nc1ccccc1C(=O)NCCc1ccccc1,"6.51 µM [rising, single point]",–

Structure (SMILES),AC50 [1],AC50 [2]
CCN(CC)c1ccc(Nc2nc(N3CCOCC3)c3ccccc3n2)cc1,–,"3.26 µM [rising, partial curve, poor fit]"
CCC(=O)N1CCN(c2ccccc2NC(=O)COc2cc(C)ccc2C(C)C)CC1,"29.1 µM [falling, single point]",–
Cc1c(CCC(C)C)c(=O)n2c([nH]c3ccccc32)c1C#N,"1.84 µM [rising, full curve]",–
Clc1ccc2c(c1)[C@H]1OCC[C@H]1[C@@H](c1ccco1)N2,–,"18.4 µM [rising, partial curve, poor fit]"
Cc1cccc(C(=O)Nc2ccc(C(=O)N/N=C/c3cccnc3)cc2)c1,"6.31 µM [falling, full curve, poor fit]",–
COc1ccc(NC(=O)C(=O)c2cn(CC(=O)N3CCOCC3)c3ccccc23)cc1OC,"7.08 µM [falling, partial curve]",–
O=C(NCc1ccco1)c1ccc2c(c1)C(=O)N(C1CCCCC1)C2=O,"3.16 µM [rising, single point]",–
Cc1cc2nc(-c3ccc[nH]c3=O)[nH]c2cc1C,"7.94 µM [falling, partial curve]",–
CS(=O)(=O)c1ccccc1-c1nc(-c2cccc(Cl)c2)no1,"10 µM [rising, partial curve, poor fit]",–
O=C(Nc1ccc(-c2noc(CCc3ccccc3)n2)cc1)c1cccnc1,"6.51 µM [rising, single point]",–
CN(C(=O)COC(=O)c1cccc(S(=O)(=O)N2CCCCCC2)c1)C1CCS(=O)(=O)C1 (stereo not given),"29.1 µM [rising, single point]","14.6 µM [falling, partial curve, poor fit]"
COc1ccc(/C=C(/C#N)C(=O)Nc2cccnc2)cc1OC,"29.1 µM [rising, single point]",–
COc1ccc(/C=N/N2C(=N)SCC2=O)cc1,"6.31 µM [rising, single point]",–
COC(=O)[C@@]1(Cc2ccccc2)[C@@H]2C(=CC(=O)[C@H]2CC(=O)C(=O)N(C)C)CN1C(=O)c1ccccc1,"8.2 µM [falling, partial curve]",–
CC1=CC(C)(C)n2c(O)c(N=NC(N)=S)c3c(C)c(C)cc1c32,"22.4 µM [falling, partial curve, poor fit]",–
Cc1cc(C)c2c(=O)n(CC(=O)N3CCC(N4CCCCC4)CC3)sc2n1,"18.4 µM [falling, single point]",–
O=C1Nc2ccccc2/C1=C/c1ccccc1F,"14.1 µM [falling, single point]",–
COc1cccc(NC(=O)c2cccc(N3C(=O)C4CCC(C)CC4C3=O)c2)c1 (stereo not given),"20 µM [falling, partial curve, poor fit]",–
O=C(CCCC(=O)Nc1cccnc1)Nc1cccnc1,"0.00517 µM [falling, full curve, poor fit]",–
Cc1cc(C)cc(NC(=O)[C@H](NC(=O)[C@@H]2Cc3ccccc3CN2)c2ccccc2)c1,"15.8 µM [falling, single point]",–
COc1ccc(/C=C/C(=O)NC(C)C)cc1Br,"2.59 µM [rising, partial curve, poor fit]",–

Structure (SMILES),AC50 [1],AC50 [2]
Cc1cccc(-c2nc(C#N)c(N3CCCCC3)o2)c1,"7.08 µM [rising, partial curve]",–
CCOC(=O)c1cnc2c(C)cccc2c1NCCc1ccc(OC)c(OC)c1,"29.1 µM [falling, single point] and 1.12 µM [falling, full curve, poor fit]",–
Cc1cc(C)nc(NC2=NC3CCCCC3N2)n1 (stereo not given),"25.9 µM [falling, single point]",–
CCN(c1ncnc2c1cnn2-c1cc(Cl)ccc1C)C1CCCCC1,"0.398 µM [rising, full curve, poor fit]",–
O=C1CC(c2ccccc2)CC(O)=C1C=Nc1ccccc1O (stereo not given),"0.562 µM [falling, full curve, poor fit]",–
Cc1cc(NC2C3CC4CC(C3)CC2C4)n2nnnc2n1 (stereo not given),"12.6 µM [rising, single point]",–
CC(C)CN(C(=O)C(C)N1C(=O)c2ccccc2C1=O)c1c(N)n(Cc2ccccc2)c(=O)[nH]c1=O (stereo not given),"20.6 µM [falling, partial curve]",–
COCCCN(C(=S)NC(=O)C(C)(C)C)c1c(N)n(Cc2ccccc2)c(=O)[nH]c1=O,"2.82 µM [rising, partial curve]",–
COc1ccc(C)cc1C(=O)C1CC(C(=O)O)C(C)(C)C1C (stereo not given),"25.1 µM [rising, partial curve, poor fit]",–
COc1cc(C(=O)NCCc2c[nH]c3ccccc23)ccc1OCc1c(C)noc1C,"12.6 µM [falling, partial curve, poor fit]",–
Cc1ccc(C(=O)/C=C/Nc2ccccc2C(N)=O)cc1,"11.2 µM [falling, partial curve]",–
O=C(O)c1ccc(-n2cc(-c3cc4ccccc4oc3=O)[nH]c2=S)cc1,"0.355 µM [falling, full curve]",–
CC(C)N(C(=O)COC(=O)[C@H](C)NC(=O)c1ccco1)c1ccccc1,"2.82 µM [falling, partial curve]",–
CC1(C)CCSC(/C=C/c2ccccc2)=N1,"12.6 µM [falling, partial curve]",–
COc1ccccc1C(=O)OCCCN=C1NS(=O)(=O)c2ccccc21,"2 µM [rising, partial curve, poor fit]",–
CCN(C(=O)c1ccc(NC(C)=O)cc1)c1ccccc1C,–,"8.2 µM [rising, partial curve, poor fit]"
O=C(Nc1ccc2c(c1)OCO2)c1cc(Cl)ccn1,"0.116 µM [rising, full curve, poor fit]",–
Cc1ccc(O)c(NC(=O)c2noc3c2CCCCC3)c1,"0.398 µM [rising, full curve, poor fit]",–
Cc1c(C(=O)O)cccc1-n1c(C)cc(/C=C(/C#N)C(=O)NCc2ccccc2)c1C,"35.5 µM [falling, single point]",–
Cc1cc(N)ccc1N1CCCC1,"6.31 µM [falling, single point]",–
COc1ccc(NC(=O)CN2C(=O)NC(C)(c3ccc4c(c3)OCCO4)C2=O)cc1S(N)(=O)=O (stereo not given),"29.1 µM [rising, single point]",–

# Random excerpt: five records from the list
Structure (SMILES),AC50 [1],AC50 [2]
COc1ccc(C)cc1C(=O)C1CC(C(=O)O)C(C)(C)C1C (stereo not given),"25.1 µM [rising, partial curve, poor fit]",–
O=C(O)c1ccc(-n2cc(-c3cc4ccccc4oc3=O)[nH]c2=S)cc1,"0.355 µM [falling, full curve]",–
O=C(Nc1ccc2c(c1)OCO2)c1cc(Cl)ccn1,"0.116 µM [rising, full curve, poor fit]",–
CC(C)N(C(=O)COC(=O)[C@H](C)NC(=O)c1ccco1)c1ccccc1,"2.82 µM [falling, partial curve]",–
COc1cc(C(=O)NCCc2c[nH]c3ccccc23)ccc1OCc1c(C)noc1C,"12.6 µM [falling, partial curve, poor fit]",–
